This is one part of the list. Further columns of the screen follow, without active or inactive calls. The list favours compounds with an active or inconclusive main result. Potencies come from curve fits of mixed quality, noted in brackets.
Assay: qHTS Assay for Lipid Storage Modulators in Drosophila S3 Cells;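 on cell number change: cells counted by Cell Tracker Red CMTPX staining in the red channel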
Details: BODIPY lipid droplet fluorescence, 18-24 h; for cell number change: measured here: cell count max response, cells fed with added oleic acid
How it was run: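 Laser-scanning cytometry quantifies lipid droplet accumulation (500–530 nm total intensity; droplet/cell object ratio) in oleic acid-fed (400 uM added) Drosophila S3 cells treated with a concentration series. 20 uM Triacsin C defined 100% inhibition.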

[1] = measured here: lipid fluorescence (Fed channel) AC50, cells fed with added oleic acid
[2] = measured here: cell number channel AC50, cells fed with added oleic acid

| Compound | cell number change [%] | AC50 [1] | AC50 [2] |
| --- | --- | --- | --- |
| CC(C)c1ccc(NC(=O)Nc2cnccn2)cc1 | 31.2 | 20.6 µM [rising, partial curve] |  |
| O=C(NCC1CCCO1)c1cn(Cc2ccccc2)nc1-c1ccc(Cl)cc1 (configuration not stated) | -1.81 | 0.00461 µM [falling, full curve, poor fit] |  |
| CC(=O)Nc1ccc(NC(=O)CS(=O)(=O)c2cn(CC(=O)N3CCCC3)c3ccccc23)cc1 | 33.6 |  | 0.146 µM [rising, full curve, poor fit] |
| COc1ccccc1CN(Cc1cc2cc(C)ccc2[nH]c1=O)Cc1nnnn1Cc1ccco1 | -30.1 | 0.0164 µM [rising, full curve, poor fit] | 10.3 µM [falling, partial curve] |
| CC(=O)c1nnn(-c2c(F)cccc2F)c1C |  |  | 0.651 µM [falling, single point] |
| O=C(CC(Cc1ccccc1)C(=O)O)Nc1ccccc1 (configuration not stated) | 38.7 |  | 29.1 µM [rising, single point] |
| CC1CCN(CC(=O)Nc2cc(C(F)(F)F)ccc2Cl)CC1 | 3.82 | 4.11 µM [rising, single point] |  |
| COc1ccc(C(CC(=O)N2CCN(c3ccccc3)CC2)c2c(OC)cc(OC)c3ccc(=O)oc23)cc1 (configuration not stated) | 6.38 | 2.06 µM [rising, partial curve] |  |
| Cc1cc(=O)oc2c3c(cc(OCC(=O)NCC4CCC(C(=O)O)CC4)c12)OC(C)(C)CC3 (configuration not stated) | -20.9 | 0.92 µM [falling, full curve, poor fit] |  |
| Cc1ccc(CN2CCN(C(=O)CC(C)C)CC2)cc1 | -21.5 |  |  |
| O=C(NC1CC1)C1=C[C@@H](c2ccc3c(c2)OCO3)C[C@@H](OCCCCO)O1 | -14.4 | 23.1 µM [rising, single point] |  |
| CCOC(=O)CN1C2=NCCN2c2ccccc21 | -109 | 29.1 µM [falling, partial curve] | 25.9 µM [falling, partial curve] |
| Cc1ccc(C)c(CN2CCC(CNC(=O)Nc3ccc(C)c(C)c3)CC2)c1 | -6.94 | 6.51 µM [falling, single point] |  |
| CCOC(=O)c1c(NC(=O)/C=C/C(=O)O)sc(C)c1-c1ccc(C(C)(C)C)cc1 | -20 | 1.26 µM [falling, full curve, poor fit] |  |
| COc1ccc(CCNc2ncccc2C#N)cc1OC | 18.1 | 0.326 µM [falling, partial curve, poor fit] |  |
| Cc1c(Cl)cccc1NC(=S)N1CCCCCC1 | -10.9 | 29.1 µM [falling, single point] |  |
| Cc1ccccc1OCC(=O)OCC(=O)NC1CC1 | -2.01 | 0.00411 µM [falling, full curve, poor fit] |  |
| COc1cc2c(cc1OC)C1CC(=O)C(CC(C)C)CN1CC2 (configuration not stated) | 51.2 | 0.92 µM [rising, full curve] | 9.2 µM [rising, partial curve] |
| O=C(O)c1ncn(Cc2ccccc2)c1C(=O)O | 1.23 | 2.91 µM [falling, full curve, poor fit] |  |
| Cc1cccc(-n2c(O)c(C=NC3CCS(=O)(=O)C3)c3ccccc3c2=O)c1 (configuration not stated) | -12.3 | 6.51 µM [rising, single point] |  |
| O=C(O)c1ccc(N2CCS(=O)(=O)CC2)cc1 | -30.2 | 8.2 µM [falling, single point] | 6.51 µM [rising, single point] |
| Cc1ccc(C(C[N+](=O)[O-])c2c(C)[nH]n(-c3ccccc3)c2=O)cc1 (configuration not stated) | -21.6 | 16.4 µM [falling, single point] |  |
| COC(=O)c1cn(NC(=O)c2cc(OC)c(OC)c(OC)c2)c(=O)c2ccccc12 | 34.6 |  | 4.61 µM [rising, partial curve, poor fit] |
| COCCOC(=O)C1=C(C)NC(=O)NC1c1ccc(-c2ccc(F)cc2)o1 (configuration not stated) | 23.5 | 2.59 µM [rising, partial curve] | 1.64 µM [rising, full curve, poor fit] |
| Cc1nn(-c2ccccc2)c2nc(=O)n(-c3ccccc3)cc12 | 9.55 | 2.31 µM [rising, full curve] |  |
| O=c1c2ccccc2nc(N2CCN(c3ccccc3)CC2)n1Cc1ccccc1 | 42.4 | 0.411 µM [rising, full curve] | 0.82 µM [rising, full curve] |
| Nc1ccc(S(=O)(=O)NC(=O)c2ccccc2)cc1 | 33.5 | 18.4 µM [falling, single point] | 29.1 µM [rising, single point] |
| CC1(C)CCCN(C(=O)c2ccc3c(c2NCCO)C(=O)c2ccccc2C3=O)C1 | -33.9 | 2.91 µM [falling, full curve] | 6.51 µM [falling, full curve, poor fit] |

A run of entries of the results above, for reference:

| Compound | cell number change [%] | AC50 [1] | AC50 [2] |
| --- | --- | --- | --- |
| Cc1ccccc1OCC(=O)OCC(=O)NC1CC1 | -2.01 | 0.00411 µM [falling, full curve, poor fit] |  |
| COc1cc2c(cc1OC)C1CC(=O)C(CC(C)C)CN1CC2 (configuration not stated) | 51.2 | 0.92 µM [rising, full curve] | 9.2 µM [rising, partial curve] |

The listing continues:

| Compound | cell number change [%] | AC50 [1] | AC50 [2] |
| --- | --- | --- | --- |
| COc1cc(SC)ccc1C(=O)Nc1ccc2c(c1)OCCO2 | 38.3 | 2.91 µM [rising, full curve] | 2.06 µM [rising, full curve, poor fit] |
| COc1cccc(-n2nnnc2SCC(=O)Nc2cccc(NC(C)=O)c2)c1 | 5.59 |  | 0.231 µM [rising, full curve, poor fit] |
| c1ccc(-n2ncc3c(NCc4ccccn4)ncnc32)cc1 |  |  | 0.731 µM [rising, single point] |
| COc1ccc(CCNC(=O)COC(=O)c2ccc(Br)o2)cc1OC | -67.5 | 16.4 µM [falling, partial curve] | 8.2 µM [falling, partial curve] |
| O=C1C=C(Nc2ccc(O)cc2)C(=O)c2ccccc21 | -34.5 |  | 32.6 µM [falling, single point] |
| O=C(CCCOc1ccccc1)OCn1nnc2ccccc2c1=O | 25.5 |  | 2.91 µM [rising, single point] |
| O=C(O)CSCC(=O)NCc1ccccc1 | -36.2 | 2.06 µM [falling, full curve] | 0.206 µM [falling, full curve] |
| CC(CN1CCOCC1)OC(=O)c1ccc(Cl)cc1Cl (configuration not stated) | 1.1 |  |  |
| CCCC[C@@]1(C2CCCC2)Cc2cc(OCC(=O)O)c(Cl)c(Cl)c2C1=O | -21.7 | 0.58 µM [falling, partial curve] | 0.411 µM [falling, full curve, poor fit] |
| COc1ccc(NC(C)C(=O)Nc2ccc(C#N)cc2)cc1Cl (configuration not stated) | 70.8 |  | 11.6 µM [rising, partial curve, poor fit] |
| CCOc1ccc(NC(=S)N2CCC(C(O)(c3ccccc3)c3ccccc3)CC2)cc1 | 1.76 | 0.731 µM [rising, full curve, poor fit] |  |
| O=C(COC(=O)c1ccc(O)cc1)NC(=O)NCc1ccccc1 | 11.3 | 0.0291 µM [rising, full curve, poor fit] | 0.00517 µM [rising, full curve, poor fit] |
| O=C(CSc1nnc(-c2ccc(Cl)cc2)o1)N1CCOCC1 | 3.75 | 18.4 µM [rising, single point] |  |
| COc1ccc(OC)c2sc(N(CCCN(C)C)C(=O)CCS(=O)(=O)c3ccccc3)nc12 | -74.4 | 29.1 µM [falling, single point] | 8.2 µM [falling, partial curve] |
| O=C(Nc1ccc2c(c1)OCCO2)C1CCN(c2nnnn2-c2ccccc2)CC1 | -9.22 |  |  |
| Cc1ccc(C(=O)Nc2ccccc2C(=O)N2CCCC2)cc1[N+](=O)[O-] | -42.2 |  | 29.1 µM [falling, single point] |
| CCn1c(SCC(=O)Nc2nc(C)cs2)nnc1C(NC(=O)c1ccccc1Cl)C(C)C (configuration not stated) | -80.5 | 8.2 µM [falling, partial curve, poor fit] | 10.3 µM [falling, partial curve] |
| COc1cccc(C(=O)Nc2ncc3c(n2)CC(c2ccc(OC)cc2OC)CC3=O)c1 (configuration not stated) | 53 | 2.31 µM [rising, single point] | 29.1 µM [rising, single point] |
| COc1ccc(Nc2nc(Nc3ccc(OC)cc3)nc(SC3=NCCS3)n2)cc1 | -11.9 | 6.51 µM [rising, single point] |  |
| CC1=C(C(=O)OCCc2ccccc2)C(c2ccsc2)NC(=O)N1C (configuration not stated) | -14.4 | 29.1 µM [rising, single point] |  |
| COc1ccc2[nH]c(O)c(N=O)c2c1 | 92 | 0.411 µM [falling, single point] | 29.1 µM [rising, partial curve, poor fit] |
| Cc1ccc(CNC(C)c2ccccc2)cc1 (configuration not stated) | 30.2 | 0.058 µM [falling, full curve, poor fit] | 29.1 µM [rising, single point] |
| COc1ccc(OC)c(NC(=O)Cn2c(-c3ccc(Cl)cc3)noc2=O)c1 | -20.5 | 6.51 µM [rising, single point] |  |
| CC(C(=O)Nc1cccc(S(=O)(=O)N2CCOCC2)c1)N1CCN(C/C=C/c2ccccc2)CC1 (configuration not stated) |  |  | 0.231 µM [rising, full curve, poor fit] |
| CCOC(=O)C1CCCN(C(=O)c2cc3cc(OC)c(OC)cc3[nH]2)C1 (configuration not stated) | -22.7 |  |  |
| c1ccc2c(NCCCN3CCOCC3)c3ccccc3nc2c1 | -34.4 |  | 2.91 µM [falling, full curve, poor fit] |
| COc1ccc(-n2ccnc2SCC(=O)NCc2ccc(F)cc2)c(OC)c1 | -13.5 | 6.51 µM [falling, single point] | 2.91 µM [falling, single point] |

— PubChem BioAssay AID2685 (National Center for Advancing Translational Sciences (NCATS), 2010)
